# Measured values published in the supplement of paper PMC10338343.
# ± gives the standard deviation. This is a selection; strong and weak results do not stand in their true shares. Many of these values have a large error. The list shows a part of the results.
# Tests used:
# [1] = test system: MILI (PIWIL2) piRISC loaded with L1MC piRNA (26 nt); assay: pre-steady-state target cleavage rate (min^-1); higher = faster piRNA-guided slicing of the target; conditions: guide: L1MC piRNA 5'p-UAACUAAAUACUAUGCAAGCUGUAGG
# Procedure, shortened: (§1)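 Using HEPES–potassium acetate buffer at 33 °C, 1 nM active affinity-purified piRISC with a single synthetic guide was mixed with 0.1 nM transcribed, DNA-blocked target RNA library for 0–8 or 0–960 min, with or without 500 nM GTSF1 partner protein. Uncleaved targets were sequenced and normalised to depth and to weakly complementary targets, and three trials were pooled with k3 capped at 0.0001 min^-1. A burst-and-steady-state fit gave the pre-steady-state cleavage rate.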
# [2] = test system: MIWI (PIWIL1) piRISC loaded with L1MC piRNA (30 nt); assay: as above; conditions: guide: L1MC piRNA 5'p-UAACUAAAUACUAUGCAAGCUGUAGGUCCU
# Procedure, shortened: as §1
# [3] = test system: EfPiwi piRISC loaded with L1MC piRNA (26 nt); assay: pre-steady-state target cleavage rate (min^-1); guide: L1MC piRNA 5'p-UAACUAAAUACUAUGCAAGCUGUAGG; MIWI and MILI are mouse PIWI proteins and EfPiwi is from a freshwater sponge; tags in brackets are library labels; higher = faster piRNA-guided slicing of the target
# Procedure, shortened: as §1
# [4] = auxiliary factor: none (no GTSF1)
# [5] = auxiliary factor: 500 nM Ephydatia muelleri Gtsf1
# [6] = auxiliary factor: 500 nM mouse GTSF1
# [7] = auxiliary factor: none (no Gtsf1)
Sequence,"pre-steady-state target cleavage rate [1, 4]","pre-steady-state target cleavage rate [2, 4]","pre-steady-state target cleavage rate [3, 5]","pre-steady-state target cleavage rate [1, 6]","pre-steady-state target cleavage rate [3, 7]","pre-steady-state target cleavage rate [2, 6]"
UCCUGCUACAGCUUGGAUAGUAUUUAGAAA,0.000931 ± 0.0069,0.00274 ± 0.0041,0.00242 ± 0.0021,,,
UCCUGCUACAGCUUGCAUAGAUAUUACAAA,0.000604 ± 0.0076,0.000239 ± 0.017,0.000517 ± 0.0083,,,
UCCUGGAACAGCAACCAUAGUAUUUACAAA,,0.000852 ± 0.0077,0.000208 ± 0.022,0.00254 ± 0.0048,,
UCCUGCUACAGCAUGCAUAGUAUUUACAAA,0.000841 ± 0.0082,0.000907 ± 0.011,0.00164 ± 0.0038,,,
UCCUGGAUGUCGAACCAAAGUUUUUAGUUA,0.000169 ± 0.012,0.000308 ± 0.016,,,0.000305 ± 0.017,
UCCUGCUACAGCUUGCAUACAUUUUUCAAA,0.000652 ± 0.0065,0.000214 ± 0.018,0.000753 ± 0.0077,,,
UCCUGGAUGAGCUACGAUAGUAUUUACAAA,0.000214 ± 0.027,0.000341 ± 0.024,0.000277 ± 0.015,,,
UCCUGGAUGUCGAUGCAUAGUAUUUUGUAA,0.000658 ± 0.0076,0.000314 ± 0.013,0.000289 ± 0.0094,,,
UCCUGGAUGUCGUUCGUUAGUAUUUAGUUA,0.000416 ± 0.012,0.000535 ± 0.012,0.00032 ± 0.01,,,
UCCUCCUACAGCAUGCAUAGUAUUUAGAAA,0.00191 ± 0.0029,0.002 ± 0.0023,0.00473 ± 0.002,,,
UCCUGGAUGUCCUUGCAUAGAAAUUAGUUA,0.00159 ± 0.0029,0.0014 ± 0.0041,0.0002 ± 0.019,,,
UCCUGGAACAGCUUGCAUAGUAAAUUCAAA,0.000708 ± 0.0073,0.000949 ± 0.0056,0.00113 ± 0.0039,,,
UCCUGGAUGUCGAACCAUAGUAUUUAGUUC [g2:g15:cont:t1C],,,< 0.0001,0.00224 ± 0.0046,,0.000159 ± 0.024
UCCUGGAUGUGCUUGCAUAGAUAUUAGUUA,0.00104 ± 0.0067,0.000298 ± 0.015,0.00162 ± 0.0069,,,
UCCUGGAACAGCUUGCAUACAUAAAUCAAA [g12:g23:cont:t1A],0.000618 ± 0.0085,0.000315 ± 0.012,0.000434 ± 0.0084,,,
UCCUGGAUGUCCUUGCAUUGUAUUUAGAUA,0.00143 ± 0.0046,0.000912 ± 0.0068,0.00121 ± 0.0044,,,
UCCUGGAUCAGCUUCGAUAGUAUUUUCAAA,0.000463 ± 0.0095,0.000689 ± 0.0067,0.000432 ± 0.0085,,,
UCCUGGAUGUCGAUGCAUAGUAUUUACUAA,0.000463 ± 0.013,0.00101 ± 0.0078,0.00224 ± 0.004,,,
UCCUGGAUGUCCUUGCAUUGUAUUUACUUA,0.00168 ± 0.004,0.00114 ± 0.0061,0.000527 ± 0.011,,,
UCCUGGAUCAGCUUGCAUAUAUUUAGUUA,0.00151 ± 0.0048,0.00147 ± 0.0035,0.00199 ± 0.0047,,,
UCCUGGAUCAGCUUCCAUAGAAUUUAGUUA,0.000375 ± 0.012,0.000738 ± 0.0081,0.000563 ± 0.0052,,,
UCCUCCUACAGCUACGAUAGUAUUUAGUAA,0.00069 ± 0.0084,0.000209 ± 0.016,,,0.000428 ± 0.01,
UCCUGGAUGUCCUUGCUAAGUAUUUAGUAA,0.000427 ± 0.015,0.000501 ± 0.015,0.000515 ± 0.0073,,,
UCCUGCUACAGCUUCCAUAGUAAUUAGUUA,0.000722 ± 0.009,0.00137 ± 0.0059,0.00176 ± 0.0022,,,
UCCUGGAACAGCUUGCAUACAUUUUACAAA,0.000223 ± 0.012,0.000625 ± 0.0089,0.000193 ± 0.033,,,

Sequence,"pre-steady-state target cleavage rate [1, 4]","pre-steady-state target cleavage rate [2, 4]","pre-steady-state target cleavage rate [3, 5]","pre-steady-state target cleavage rate [1, 6]","pre-steady-state target cleavage rate [3, 7]","pre-steady-state target cleavage rate [2, 6]"
UCCUGCUACAGCUUGCAAAGUAUUUACAAA,0.00107 ± 0.0053,0.00276 ± 0.0033,,,0.000291 ± 0.024,
UCCUGGAUGUCCUUCCAUAGUAUUAAGUUA,0.000567 ± 0.0091,0.000632 ± 0.009,0.000164 ± 0.023,,,
UCCUGGAUGUCGAAGCAUAGUAAUUUGUUA,0.000586 ± 0.0081,0.000813 ± 0.0075,0.000156 ± 0.024,,,
UCCUGGAUGUCGAAGCAUAGUAUUGAGUUA,0.00139 ± 0.0044,0.000873 ± 0.0081,0.000234 ± 0.016,,,
UCCUGGAUGUCCUUGCAUAGAAUUAAGUUA,0.00142 ± 0.0057,0.00101 ± 0.0093,0.0014 ± 0.005,,,
UCCUCCUACAGCUUGCAUUCAUAAAUCAAA [g13:g26:cont:t1A],0.000105 ± 0.029,0.000222 ± 0.013,0.00126 ± 0.0055,,,
UCCUGGAUGUCCUUGACAUAGUAUUUAGUUA,0.00145 ± 0.0045,0.000836 ± 0.01,0.00194 ± 0.0034,,,
UCCUGGAUGUCGAUGCAUAGUAUGUAGUUA,0.00149 ± 0.0052,,0.000255 ± 0.023,,,0.000489 ± 0.017
UCCUGGAUGUCGUUGACAUAGUAUUUAGUUA,0.000292 ± 0.012,0.00056 ± 0.016,0.00159 ± 0.0059,,,
UCCUGGUACAGCUUGCAUAGUUAUUACAAA,0.000896 ± 0.007,0.000938 ± 0.0059,0.000576 ± 0.0052,,,
UCCUGGAUGUCCUUGCUAUAGUAUUUAGUUA,0.000735 ± 0.0057,0.00111 ± 0.0057,0.000517 ± 0.0068,,,
UCCUGGAUGAGCUUCGAUAGUAUUUACAAA,0.000358 ± 0.017,0.000309 ± 0.012,0.000413 ± 0.01,,,
UCCUCCUACAGCUUCGUUAGUAUUUAGAAA,0.00038 ± 0.014,0.000269 ± 0.0097,0.000259 ± 0.0097,,,
UCCUGCUACAGCUUGCAUACAAUUUUCAAA,0.00107 ± 0.0054,0.000787 ± 0.011,0.00133 ± 0.0054,,,
UCCUGGAUGUCGAAGCAAAGUAUUUUGUUA,0.000333 ± 0.014,0.000532 ± 0.014,,,0.000123 ± 0.067,
UCCUGGAUGUCCUUGCAUAGUAUUAUCUUA,0.000959 ± 0.0069,0.000844 ± 0.0081,0.00164 ± 0.0058,,,
UCCUGGAUGUCCUUGCAUACUAUUUACUUA,0.00131 ± 0.0037,0.0012 ± 0.0052,0.000227 ± 0.011,,,
UCCUCCUACAGCUUGCAUAGUAAUUUCAAA,0.00166 ± 0.0046,0.000729 ± 0.0096,0.00321 ± 0.0026,,,
UCCUGGAACAGGAUGCAUAGUAUUUAGAAA,0.000882 ± 0.0043,0.001 ± 0.0043,0.00257 ± 0.0016,,,
UCCUGGAUCACCUUCCAUAGUAUUUAGUUA,0.00116 ± 0.0067,0.000261 ± 0.011,0.00139 ± 0.0045,,,
UCCUCCUACAGCUACCAUAGUAUUUACAAA,0.000819 ± 0.0063,0.000853 ± 0.0086,0.00225 ± 0.0038,,,
UCCUGGAUCAGCUUGCAUAGUAUAAACAAA,0.000649 ± 0.01,0.00128 ± 0.004,0.000805 ± 0.0045,,,
UCCUGGAUGUCGAUGCAAAGUAUUAAGUUA,0.000591 ± 0.011,0.000476 ± 0.015,,,0.000301 ± 0.024,
UCCUCCUUGUGCUUGCAUAGUAUUUACAAA,0.000667 ± 0.0072,0.0022 ± 0.0022,0.00376 ± 0.0032,,,
UCCUCCUUGAGCUUGCAUAGUAUUUUCAAA,0.000893 ± 0.0058,0.00166 ± 0.0026,0.00265 ± 0.0021,,,

# In a second layout: results already given
Sequence	pre-steady-state target cleavage rate [1, 4]	pre-steady-state target cleavage rate [2, 4]	pre-steady-state target cleavage rate [3, 5]	pre-steady-state target cleavage rate [1, 6]	pre-steady-state target cleavage rate [3, 7]	pre-steady-state target cleavage rate [2, 6]
UCCUGGAUGUCGAAGCAUAGUAAUUUGUUA	0.000586 ± 0.0081	0.000813 ± 0.0075	0.000156 ± 0.024			
UCCUGGAUGUCGAAGCAUAGUAUUGAGUUA	0.00139 ± 0.0044	0.000873 ± 0.0081	0.000234 ± 0.016			
UCCUGGAUGUCCUUGCAUAGAAUUAAGUUA	0.00142 ± 0.0057	0.00101 ± 0.0093	0.0014 ± 0.005			
UCCUCCUACAGCUUGCAUUCAUAAAUCAAA [g13:g26:cont:t1A]	0.000105 ± 0.029	0.000222 ± 0.013	0.00126 ± 0.0055			
UCCUGGAUGUCCUUGACAUAGUAUUUAGUUA	0.00145 ± 0.0045	0.000836 ± 0.01	0.00194 ± 0.0034			
UCCUGGAUGUCGAUGCAUAGUAUGUAGUUA	0.00149 ± 0.0052		0.000255 ± 0.023			0.000489 ± 0.017
UCCUGGAUGUCGUUGACAUAGUAUUUAGUUA	0.000292 ± 0.012	0.00056 ± 0.016	0.00159 ± 0.0059			
UCCUGGUACAGCUUGCAUAGUUAUUACAAA	0.000896 ± 0.007	0.000938 ± 0.0059	0.000576 ± 0.0052			
UCCUGGAUGUCCUUGCUAUAGUAUUUAGUUA	0.000735 ± 0.0057	0.00111 ± 0.0057	0.000517 ± 0.0068			
UCCUGGAUGAGCUUCGAUAGUAUUUACAAA	0.000358 ± 0.017	0.000309 ± 0.012	0.000413 ± 0.01			
UCCUCCUACAGCUUCGUUAGUAUUUAGAAA	0.00038 ± 0.014	0.000269 ± 0.0097	0.000259 ± 0.0097			
